Here are results for three molecules from paper PMC7048770.

Amino acid sequences for entries named in this document (tags omitted). A change or cut given only in a name is not applied to a line headed by its entry.
UniProt Q5J8M3: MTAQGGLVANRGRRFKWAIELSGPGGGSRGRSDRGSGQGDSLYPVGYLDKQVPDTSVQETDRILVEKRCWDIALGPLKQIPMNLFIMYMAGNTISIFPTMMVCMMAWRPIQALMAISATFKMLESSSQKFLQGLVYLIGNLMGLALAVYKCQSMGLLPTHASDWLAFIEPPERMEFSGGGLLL
UniProt P51149: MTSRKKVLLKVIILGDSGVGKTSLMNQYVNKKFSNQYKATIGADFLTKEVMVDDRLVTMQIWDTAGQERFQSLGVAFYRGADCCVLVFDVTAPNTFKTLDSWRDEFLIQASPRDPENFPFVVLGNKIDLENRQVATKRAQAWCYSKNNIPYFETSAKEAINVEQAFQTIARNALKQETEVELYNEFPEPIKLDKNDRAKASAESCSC

No constants are given. Whether binding was seen depends on the method and setting. In cells and extracts the contact can be indirect. Some entries that bind do so weakly or less than the wild type. For part of these data: Sequences can lack the tags named with a protein.

For assay [1], the target named is T1, EMC7*-FLAG (human (cDNA isolated from HEK 293 T cells)) (UniProt Q9NPA0).
T1 sequence: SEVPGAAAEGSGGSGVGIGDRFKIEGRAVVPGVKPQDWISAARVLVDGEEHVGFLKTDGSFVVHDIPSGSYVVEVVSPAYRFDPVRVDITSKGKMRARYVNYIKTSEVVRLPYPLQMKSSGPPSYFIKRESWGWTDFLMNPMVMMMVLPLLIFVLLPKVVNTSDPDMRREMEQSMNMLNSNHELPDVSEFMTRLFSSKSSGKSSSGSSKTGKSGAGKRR
Description: co-IP; cells transfected with FLAG-tagged constructs (HEK 293 T treated with EMC4 and/or EMC7 siRNA, with EGFP-Rab7 constructs in Figs. 4e and 7b), extract incubated with FLAG antibody-conjugated agarose beads (FLAG M2) for 2 h at 4 °C, immunoblot. In general terms: Immunoblotting shows a protein as a band on a membrane.

For assay [2], the target named is EMC4 (endogenous) (human (endogenous in HEK 293 T)) (UniProt Q5J8M3). Description: co-IP; extract of untransfected cells (HEK 293 T in Fig. 4b; HNp buffer with 1% DBC or 0.5% NP40) incubated overnight with EMC4 antibody or control IgG, protein A/G agarose beads, immunoblot; both partners endogenous.

In the case of “EGFP-N125I Rab7 (from UniProt P51149 1-207)”, the binding result in assay [1] is given as “no binding”.

As for “EGFP-tagged wild-type Rab7 (from UniProt P51149 1-207)”, the binding entry in assay [1] is reported as “binds”.

B1: protrudin (endogenous) (protein, UniProt Q5T4F4 1-411)
chain: MQTSEREGSGPELSPSVMPEAPLESPPFPTKSPAFDLFNLVLSYKRLEIYLEPLKDAGDGVRYLLRWQMPLCSLLTCLGLNVLFLTLNEGAWYSVGALMISVPALLGYLQEVCRARLPDSELMRRKYHSVRQEDLQRGRLSRPEAVAEVKSFLIQLEAFLSRLCCTCEAAYRVLHWENPVVSSQFYGALLGTVCMLYLLPLCWVLTLLNSTLFLGNVEFFRVVSEYRASLQQRMNPKQEEHAFESPPPPDVGGKDGLMDSTPALTPTEDLTPGSVEEAEEAEPDEEFKDAIEETHLVVLEDDEGAPCPAEDELALQDNGFLSKNEVLRSKVSRLTERLRKRYPTNNFGNCTGCSATFSVLKKRRSCSNCGNSFCSRCCSFKVPKSSMGATAPEAQRETVFVCASCNQTLSK
With B1, the binding result in assay [2] is reported as “no binding”.
